Measured values from PubChem BioAssay AID256 (DTP/NCI, 2004).
The list shows only some results of the screen, not a fair sample: it gathers tests that were run many times, whatever their T/C, doses with no T/C, and many T/C values between a quarter and a half above the control. Other doses and runs of a compound stand elsewhere. T/C gives the treated animals as a percentage of the vehicle group. Some doses have a count of surviving animals in place of a T/C: the source holds a T/C of zero for them, seemingly a mark for toxic or unscored doses. Some survivor counts are full or nearly so, which does not show that the dose was tolerated: survival well below the control is almost never listed, so the zero probably covers shortened survival too. Survivors were counted at the toxicity check, usually on the fifth day, unless a day is given; later deaths do not show. Schedule codes are those of the source, taken here to give the interval after Q, in days (D) or hours (H), and the number of doses after X. Some entries hold several experiments; their values stand side by side, smallest first. For survival time, the PubChem record calls one and a half times the control and up active, and a quarter to a half above the control has no call in these data; cut-offs in other NCI protocols can differ. Some T/C values are followed by the survivors on the day toxicity was checked, most often the fifth; where none is given, no animal had died by that day.

Test system: CD2F1 mice, L1210 leukemia ip, survival T/C
Assay: NCI In Vivo Anticancer Drug Screen. Data for tumor model L1210 Leukemia (intraperitoneal) in CD2F1 (CDF1) mice
Conditions: higher T/C = longer survival
Summary of the method: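 Transplantable tumor in mice; compound-treated vs vehicle-treated groups. Read-out = treated/control ratio of the measured endpoint.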

[1] = T/C endpoint: mean survival time, dose: 400.0 mg/kg/injection, schedule: Q01DX009 (ip), vehicle: saline with Tween-80
[2] = T/C endpoint: mean survival time, dose: 200.0 mg/kg/injection, schedule: Q04DX003 (ip), vehicle: saline with Tween-80
[3] = T/C endpoint: mean survival time, dose: 400.0 mg/kg/injection, schedule: Q04DX003 (ip), vehicle: saline with Tween-80
[4] = T/C endpoint: mean survival time, dose: 400.0 mg/kg/injection, schedule: Q01DX001 (ip), vehicle: saline with Tween-80
[5] = T/C endpoint: mean survival time, dose: 200.0 mg/kg/injection, schedule: Q04DX002 (ip), vehicle: saline with Tween-80
[6] = T/C endpoint: mean survival time, dose: 400.0 mg/kg/injection, schedule: Q04DX002 (ip), vehicle: saline with Tween-80
[7] = T/C endpoint: mean survival time, dose: 100.0 mg/kg/injection, schedule: Q04DX003 (ip), vehicle: saline with Tween-80

CCCCN(Cc1ccccc1)CC(O)C[NH-].CS(C)=O.[Cl-].[Cl-].[Pt+4] (configuration not stated)
survivor count (T/C endpoint: median survival time, dose: 100.0 mg/kg/injection, schedule: Q04DX003 (ip), vehicle: saline): 5 of 6
survivor count (T/C endpoint: median survival time, dose: 200.0 mg/kg/injection, schedule: Q04DX003 (ip), vehicle: saline): 2 of 6

O=S(=O)(O)c1ccc2c(N=Nc3ccccc3[As](=O)(O)O)c(O)c(S(=O)(=O)O)cc2c1
survivor count [1]: 5 of 6

O=C1N(Cc2ccccc2)CC2C(c3ccccc3)NNC12O (configuration not stated)
survivor count [2]: 6 of 6

CCCCCCC1CCCCN1 (configuration not stated)
survivor count (T/C endpoint: mean survival time, dose: 100.0 mg/kg/injection, schedule: Q04DX003 (ip), vehicle: Klucel (hydroxypropylcellulose) (HPC)): 0 of 3
survivor count (T/C endpoint: mean survival time, dose: 200.0 mg/kg/injection, schedule: Q04DX003 (ip), vehicle: Klucel (hydroxypropylcellulose) (HPC)): 0 of 3
survivor count (T/C endpoint: mean survival time, dose: 400.0 mg/kg/injection, schedule: Q04DX003 (ip), vehicle: Klucel (hydroxypropylcellulose) (HPC)): 0 of 3

Cn1cnc([N+](=O)[O-])c1[Se]c1nc(N)nc2c1ncn2C1OC(CO)C(O)C1O (configuration not stated)
T/C (T/C endpoint: mean survival time, dose: 4.0 mg/kg/injection, schedule: Q01DX009 (ip), vehicle: distilled water + Tween-80): 126 % of control
T/C (T/C endpoint: mean survival time, dose: 12.5 mg/kg/injection, schedule: Q01DX005 (ip), vehicle: saline): 127 % of control
T/C (T/C endpoint: mean survival time, dose: 16.0 mg/kg/injection, schedule: Q01DX009 (ip), vehicle: distilled water + Tween-80): 133 and 148 % of control
T/C (T/C endpoint: mean survival time, dose: 25.0 mg/kg/injection, schedule: Q01DX005 (ip), vehicle: saline): 131 % of control
T/C (T/C endpoint: mean survival time, dose: 50.0 mg/kg/injection, schedule: Q01DX005 (ip), vehicle: saline): 144 % of control
T/C (T/C endpoint: mean survival time, dose: 64.0 mg/kg/injection, schedule: Q01DX009 (ip), vehicle: distilled water + Tween-80): 130 % of control [4 of 6 alive]
survivor count (T/C endpoint: mean survival time, dose: 128.0 mg/kg/injection, schedule: Q01DX009 (ip), vehicle: distilled water + Tween-80): 2 of 6

CC1(C)C2CC=C(CCCc3ccccc3)C1C2 (configuration not stated)
survivor count [3]: 3 of 6

CC(O)CNc1nc(N)[nH]c(=O)c1[N+](=O)[O-] (configuration not stated)
survivor count [4]: 3 of 6

O=C(O)/C=N/NS(=O)(=O)c1ccc(Cl)cc1
T/C (T/C endpoint: mean survival time, dose: 100.0 mg/kg/injection, schedule: Q04DX003 (ip), vehicle: other): 128 and 132 % of control
T/C (T/C endpoint: mean survival time, dose: 200.0 mg/kg/injection, schedule: Q04DX003 (ip), vehicle: other): 143 % of control
survivor count (T/C endpoint: mean survival time, dose: 400.0 mg/kg/injection, schedule: Q04DX003 (ip), vehicle: other): 2 of 6

C[n+]1ccn(CC(=O)c2ccccc2)c1
survivor count (T/C endpoint: mean survival time, dose: 200.0 mg/kg/injection, schedule: Q04DX003 (ip), vehicle: saline): 2 of 6
survivor count (T/C endpoint: mean survival time, dose: 400.0 mg/kg/injection, schedule: Q04DX003 (ip), vehicle: saline): 0 of 6

Cc1cc(=O)oc2cc(OC(=O)C(CCCCN)NC(=O)OCc3ccccc3)ccc12 (configuration not stated)
survivor count (T/C endpoint: mean survival time, dose: 200.0 mg/kg/injection, schedule: Q01DX009 (ip), vehicle: other): 2 of 6

CCC[CH2][Sn]([CH2]CCC)([O]C(=O)COc1ccc(C(=O)c2ccccc2)c(O)c1)[O]C(=O)COc1ccc(C(=O)c2ccccc2)c(O)c1
survivor count (T/C endpoint: mean survival time, dose: 25.0 mg/kg/injection, schedule: Q01DX001 (ip), vehicle: saline with Tween-80): 0 of 3
survivor count (T/C endpoint: mean survival time, dose: 50.0 mg/kg/injection, schedule: Q01DX001 (ip), vehicle: saline with Tween-80): 0 of 3
survivor count (T/C endpoint: mean survival time, dose: 100.0 mg/kg/injection, schedule: Q01DX001 (ip), vehicle: saline with Tween-80): 1 of 3
survivor count (T/C endpoint: mean survival time, dose: 200.0 mg/kg/injection, schedule: Q01DX001 (ip), vehicle: saline with Tween-80): 0 of 3
survivor count [4]: 0 of 3

CCC(/C=C/C1OC(=O)C=CC1C)=C\C(C)C/C=C/C(C)=C/C(C)C(=O)C(C)C(O)C(C)C/C(C)=C/C(=O)O (configuration not stated)
T/C (T/C endpoint: median survival time, dose: 50.0 micrograms/kg/injection, schedule: Q01DX005 (ip), vehicle: saline + alcohol): 128 % of control
survivor count (T/C endpoint: median survival time, dose: 100.0 micrograms/kg/injection, schedule: Q01DX005 (ip), vehicle: saline + alcohol): 6 of 6
T/C (T/C endpoint: median survival time, dose: 100.0 micrograms/kg/injection, schedule: Q01DX009 (ip), vehicle: saline + alcohol): 127 % of control
survivor count (T/C endpoint: median survival time, dose: 200.0 micrograms/kg/injection, schedule: Q01DX009 (ip), vehicle: saline + alcohol): 5 of 6

CC(C)(C)c1ccc(SC(=O)c2ccc(C(=O)Sc3ccc(C(C)(C)C)cc3)cc2)cc1
survivor count [5]: 3 of 3
survivor count [6]: 3 of 3

O=C(CCl)NCCCNC(=O)CCl
survivor count [2]: 0 of 6
survivor count [3]: 0 of 6

C1=C\C[n+]2ccccc2-c2cccc[n+]2C/1
survivor count (T/C endpoint: mean survival time, dose: 30.0 mg/kg/injection, schedule: Q04DX003 (ip), vehicle: saline): 2 of 6

CC(C)c1cc(O)ccc1N(C)C (tested in a mixture with another compound)
survivor count (T/C endpoint: mean survival time, dose: 0.5 mg/kg/injection, schedule: Q01DX001 (ip), vehicle: saline): 0 of 6
survivor count (T/C endpoint: mean survival time, dose: 1.0 mg/kg/injection, schedule: Q01DX001 (ip), vehicle: saline): 0 of 6
survivor count (T/C endpoint: mean survival time, dose: 2.0 mg/kg/injection, schedule: Q01DX001 (ip), vehicle: saline): 0 of 6
survivor count (T/C endpoint: mean survival time, dose: 3.75 mg/kg/injection, schedule: Q01DX001 (ip), vehicle: saline): 0 of 6
survivor count (T/C endpoint: mean survival time, dose: 7.5 mg/kg/injection, schedule: Q01DX001 (ip), vehicle: saline): 0 of 6
survivor count (T/C endpoint: mean survival time, dose: 15.0 mg/kg/injection, schedule: Q01DX001 (ip), vehicle: saline): 0 of 6
survivor count (T/C endpoint: mean survival time, dose: 18.8 mg/kg/injection, schedule: Q01DX001 (ip), vehicle: saline): 0 of 6
survivor count (T/C endpoint: mean survival time, dose: 37.5 mg/kg/injection, schedule: Q01DX001 (ip), vehicle: saline): 0 of 6
survivor count (T/C endpoint: mean survival time, dose: 75.0 mg/kg/injection, schedule: Q01DX001 (ip), vehicle: saline): 0 of 6
survivor count (T/C endpoint: mean survival time, dose: 250.0 micrograms/kg/injection, schedule: Q01DX001 (ip), vehicle: saline): 1 of 6

NC(CS)=NC1CCCCC1
survivor count (T/C endpoint: mean survival time, dose: 50.0 mg/kg/injection, schedule: Q04DX002 (ip), vehicle: saline with Tween-80): 0 of 3
survivor count (T/C endpoint: mean survival time, dose: 100.0 mg/kg/injection, schedule: Q04DX002 (ip), vehicle: saline with Tween-80): 1 of 3
survivor count [5]: 0 of 3
survivor count [6]: 0 of 3

Cc1cc2ccccc2[n+](C)c1-c1ccccc1Cl (tested in a mixture with another compound)
survivor count (T/C endpoint: mean survival time, dose: 20.0 mg/kg/injection, schedule: Q01DX009 (ip), vehicle: saline): 3 of 6
survivor count [7]: 0 of 6
survivor count [2]: 0 of 6
survivor count [3]: 0 of 6

COc1cc(NC(=O)Nc2cccc(Cl)c2)c(OC)cc1Cl
survivor count [5]: 3 of 3

Cc1ccc(NCC2(/N=C/c3ccccc3)OC(CO)C(O)C2O)cc1 (configuration not stated)
T/C (T/C endpoint: mean survival time, dose: 177.0 mg/kg/injection, schedule: Q01DX009 (ip), vehicle: Klucel (hydroxypropylcellulose) (HPC)): 125 % of control
T/C (T/C endpoint: mean survival time, dose: 266.0 mg/kg/injection, schedule: Q01DX009 (ip), vehicle: saline with Tween-80): 130 % of control
T/C [1]: 131 % of control [5 of 6 alive]
survivor count (T/C endpoint: mean survival time, dose: 600.0 mg/kg/injection, schedule: Q01DX009 (ip), vehicle: Klucel (hydroxypropylcellulose) (HPC)): 4 of 6 and 6 of 6
survivor count (T/C endpoint: mean survival time, dose: 600.0 mg/kg/injection, schedule: Q01DX009 (ip), vehicle: saline with Tween-80): 4 of 6

CCCCCC(O)C1C(=O)OC(C)C(O)/C=C/C=C/C=C/C=C\C=C(\C)C(O)CC(O)CC(O)CC(O)CC(O)CC(O)CC1O (configuration not stated)
survivor count (T/C endpoint: median survival time, dose: 50.0 mg/kg/injection, schedule: Q01DX009 (ip), vehicle: distilled water + alcohol): 3 of 6

O=C([O][Sb]([O]C(=O)C(Cl)Cl)([c]1ccccc1)([c]1ccccc1)[c]1ccccc1)C(Cl)Cl
survivor count [3]: 3 of 6

O=[n+]1ccn2cc3ccccc3cc2c1
survivor count (T/C endpoint: mean survival time, dose: 25.0 mg/kg/injection, schedule: Q04DX003 (ip), vehicle: saline with Tween-80): 6 of 6
survivor count [7]: 5 of 6
survivor count [2]: 1 of 6
survivor count [3]: 0 of 6

C[n+]1cccc(CCc2ccc[n+](C)c2)c1
survivor count (T/C endpoint: mean survival time, dose: 200.0 mg/kg/injection, schedule: Q01DX009 (ip), vehicle: saline): 0 of 3
